Drawing on paper doi:10.1101/2021.05.03.442402, this text covers binding for two molecules.

The experiment deals with recombinant PfGet3-6×his (P. falciparum 3D7) (UniProt Q8I1T8). Kind of experiment: pull-down.

These are yes or no findings as the source states them, for the method shown. A result given as binding can be weak or reduced; the word gives no strength. Tags and fused reporters may be left off the sequences shown.

B1: recombinant MBP-PfGet4 (protein, UniProt Q8IL82 1-277)
chain: MKKFKFSKEKLAKEKIENGLHYEAHQLIKSIINRKLQKNQISNCISVIFYFSLKFATAEQYVLLCDLMYQCCLILTQHDIEFNLEYANKIIEIFQKCPPNSTEEKYKFMNKSILWSKSEENVYGYLEFHKVIGYAYFEDKQYSLAHNHFIYLDDNDILYEIICLWRKEAYPSESHFFVLRTILCLLVLDKFDQALNLINMFETNLNRQDVPLPIQLAYLITSSCIYKSLALYEDVKYKYRLILNYDPDFQKYINIIDAAVFNKKKHNLFSMFQNIFA
Turning to B1, the binding result is on record as “binds”.

B2: recombinant MBP-PfGet2^CD (cytosolic domain of PF3D7_0215600) (domain or fragment, UniProt O96235 1-246)
chain: MDKNTLKRRSRLLQKNEARMSMLLGRNLDDEISKEKKESNKNDKHKKNDQHKKNDKSNQNGEDNQNGEDNQNDESNQNDEHKKNDEHKKNDEHNQNDEHNQNDEHNQNDEHNQNDEHNQNDEHNQNDEHNQNDEHNQNDESNQNDKNRKEIPPKEEKDKENNPSVVMENNNNIRKDQDNKTSEHKSSTNIYNKDKNNDYNKLLDKDDNNNNNKNINKNDENDFTSINNDIPNKNKITSQFIITKHE
As to B2, the binding result is recorded as “binds”.
